# Measured values from paper PMC4432227.
# No constants are given. Whether binding was seen depends on the method and setting. Binding seen in cells or lysates may run through a third protein. Some entries that bind do so weakly or less than the wild type. Sequences can lack the tags named with a protein.
# T1: HA–Vps41-T146P (HEK293T) (human) (UniProt P49754)
# T1 sequence: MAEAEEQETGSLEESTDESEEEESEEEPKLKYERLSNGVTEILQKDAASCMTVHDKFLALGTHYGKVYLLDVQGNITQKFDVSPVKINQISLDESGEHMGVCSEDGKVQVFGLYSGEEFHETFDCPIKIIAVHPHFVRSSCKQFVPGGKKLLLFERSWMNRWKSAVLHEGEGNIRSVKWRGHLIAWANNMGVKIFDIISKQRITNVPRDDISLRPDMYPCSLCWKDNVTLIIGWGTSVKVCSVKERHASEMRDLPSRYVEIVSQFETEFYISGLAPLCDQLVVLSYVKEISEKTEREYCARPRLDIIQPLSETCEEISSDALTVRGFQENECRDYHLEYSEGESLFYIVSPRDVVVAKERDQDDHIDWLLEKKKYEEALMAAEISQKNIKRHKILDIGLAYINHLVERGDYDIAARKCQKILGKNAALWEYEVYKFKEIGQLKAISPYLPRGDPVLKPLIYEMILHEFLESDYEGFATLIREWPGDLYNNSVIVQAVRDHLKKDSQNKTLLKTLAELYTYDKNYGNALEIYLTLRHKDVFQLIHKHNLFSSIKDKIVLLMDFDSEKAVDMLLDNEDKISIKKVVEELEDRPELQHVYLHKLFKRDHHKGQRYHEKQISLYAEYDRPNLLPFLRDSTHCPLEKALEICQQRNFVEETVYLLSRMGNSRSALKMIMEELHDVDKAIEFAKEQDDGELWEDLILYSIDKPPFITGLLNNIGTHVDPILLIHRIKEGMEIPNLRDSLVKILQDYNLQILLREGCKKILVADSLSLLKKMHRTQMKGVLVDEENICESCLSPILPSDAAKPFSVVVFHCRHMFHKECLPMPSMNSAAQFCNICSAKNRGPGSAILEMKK
# T2: HA–Vps41 (HEK293T) (human) (UniProt P49754)
# T2 sequence: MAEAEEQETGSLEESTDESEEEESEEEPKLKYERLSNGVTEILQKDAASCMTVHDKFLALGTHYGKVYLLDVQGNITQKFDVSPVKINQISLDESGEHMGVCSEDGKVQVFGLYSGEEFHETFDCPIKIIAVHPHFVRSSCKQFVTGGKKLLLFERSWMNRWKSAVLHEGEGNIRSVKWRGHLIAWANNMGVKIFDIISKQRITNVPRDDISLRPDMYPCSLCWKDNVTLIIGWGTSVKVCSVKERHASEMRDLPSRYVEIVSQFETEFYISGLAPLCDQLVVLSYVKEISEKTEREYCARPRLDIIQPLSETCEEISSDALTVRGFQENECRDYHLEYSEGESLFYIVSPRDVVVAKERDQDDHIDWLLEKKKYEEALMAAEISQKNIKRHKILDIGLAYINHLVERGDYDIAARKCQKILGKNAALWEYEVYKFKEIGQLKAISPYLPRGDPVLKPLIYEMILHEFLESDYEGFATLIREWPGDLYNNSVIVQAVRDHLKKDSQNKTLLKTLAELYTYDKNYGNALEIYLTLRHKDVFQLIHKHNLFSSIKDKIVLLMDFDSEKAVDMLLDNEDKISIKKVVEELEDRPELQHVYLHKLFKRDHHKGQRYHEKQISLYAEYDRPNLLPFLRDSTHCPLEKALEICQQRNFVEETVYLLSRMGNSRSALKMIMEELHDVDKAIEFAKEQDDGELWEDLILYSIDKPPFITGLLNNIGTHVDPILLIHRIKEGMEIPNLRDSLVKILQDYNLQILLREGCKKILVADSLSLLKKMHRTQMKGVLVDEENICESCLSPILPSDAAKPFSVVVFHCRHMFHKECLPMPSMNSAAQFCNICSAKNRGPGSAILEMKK
# How the values were obtained:
# [1] = target: T1, HA–Vps41-T146P (HEK293T) (human); experiment: co-IP; transfected HEK293T cell lysates (20 mM Tris-HCl pH 7.4, 150 mM NaCl, 0.5% NP-40, 1 mM sodium orthovanadate), immunoprecipitated with anti-HA
# [2] = target: T2, HA–Vps41 (HEK293T) (human); experiment: as above
binding [1],binding [2],Binder
binds,binds,"Myc–Vps18 (protein, UniProt Q9P253 1-973) MASILDEYENSLSRSAVLQPGCPSVGIPHSGYVNAQLEKEVPIFTKQRIDFTPSERITSLVVSSNQLCMSLGKDTLLRIDLGKANEPNHVELGRKDDAKVHKMFLDHTGSHLLIALSSTEVLYVNRNGQKVRPLARWKGQLVESVGWNKALGTESSTGPILVGTAQGHIFEAELSASEGGLFGPAPDLYFRPLYVLNEEGGPAPVCSLEAERGPDGRSFVIATTRQRLFQFIGRAAEGAEAQGFSGLFAAYTDHPPPFREFPSNLGYSELAFYTPKLRSAPRAFAWMMGDGVLYGALDCGRPDSLLSEERVWEYPEGVGPGASPPLAIVLTQFHFLLLLADRVEAVCTLTGQVVLRDHFLEKFGPLKHMVKDSSTGQLWAYTERAVFRYHVQREARDVWRTYLDMNRFDLAKEYCRERPDCLDTVLAREADFCFRQRRYLESARCYALTQSYFEEIALKFLEARQEEALAEFLQRKLASLKPAERTQATLLTTWLTELYLSRLGALQGDPEALTLYRETKECFRTFLSSPRHKEWLFASRASIHELLASHGDTEHMVYFAVIMQDYERVVAYHCQHEAYEEALAVLARHRDPQLFYKFSPILIRHIPRQLVDAWIEMGSRLDARQLIPALVNYSQGGEVQQVSQAIRYMEFCVNVLGETEQAIHNYLLSLYARGRPDSLLAYLEQAGASPHRVHYDLKYALRLCAEHGHHRACVHVYKVLELYEEAVDLALQVDVDLAKQCADLPEEDEELRKKLWLKIARHVVQEEEDVQTAMACLASCPLLKIEDVLPFFPDFVTIDHFKEAICSSLKAYNHHIQELQREMEEATASAQRIRRDLQELRGRYGTVEPQDKCATCDFPLLNRPFYLFLCGHMFHADCLLQAVRPGLPAYKQARLEELQRKLGAAPPPAKGSARAKEAEGGAATAGPSREQLKADLDELVAAECVYCGELMIRSIDRPFIDPQRYEEEQLSWL"
binds,binds,"endogenous Vps33a (protein, UniProt Q96AX1 1-596) MAAHLSYGRVNLNVLREAVRRELREFLDKCAGSKAIVWDEYLTGPFGLIAQYSLLKEHEVEKMFTLKGNRLPAADVKNIIFFVRPRLELMDIIAENVLSEDRRGPTRDFHILFVPRRSLLCEQRLKDLGVLGSFIHREEYSLDLIPFDGDLLSMESEGAFKECYLEGDQTSLYHAAKGLMTLQALYGTIPQIFGKGECARQVANMMIRMKREFTGSQNSIFPVFDNLLLLDRNVDLLTPLATQLTYEGLIDEIYGIQNSYVKLPPEKFAPKKQGDGGKDLPTEAKKLQLNSAEELYAEIRDKNFNAVGSVLSKKAKIISAAFEERHNAKTVGEIKQFVSQLPHMQAARGSLANHTSIAELIKDVTTSEDFFDKLTVEQEFMSGIDTDKVNNYIEDCIAQKHSLIKVLRLVCLQSVCNSGLKQKVLDYYKREILQTYGYEHILTLHNLEKAGLLKPQTGGRNNYPTIRKTLRLWMDDVNEQNPTDISYVYSGYAPLSVRLAQLLSRPGWRSIEEVLRILPGPHFEERQPLPTGLQKKRQPGENRVTLIFFLGGVTFAEIAALRFLSQLEDGGTEYVIATTKLMNGTSWIEALMEKPF"
binds,–,"endogenous Vps11 (protein, UniProt Q9H270 1-941) MAAYLQWRRFVFFDKELVKEPLSNDGAAPGATPASGSAASKFLCLPPGITVCDSGRGSLVFGDMEGQIWFLPRSLQLTGFQAYKLRVTHLYQLKQHNILASVGEDEEGINPLVKIWNLEKRDGGNPLCTRIFPAIPGTEPTVVSCLTVHENLNFMAIGFTDGSVTLNKGDITRDRHSKTQILHKGNYPVTGLAFRQAGKTTHLFVVTTENVQSYIVSGKDYPRVELDTHGCGLRCSALSDPSQDLQFIVAGDECVYLYQPDERGPCFAFEGHKLIAHWFRGYLIIVSRDRKVSPKSEFTSRDSQSSDKQILNIYDLCNKFIAYSTVFEDVVDVLAEWGSLYVLTRDGRVHALQEKDTQTKLEMLFKKNLFEMAINLAKSQHLDSDGLAQIFMQYGDHLYSKGNHDGAVQQYIRTIGKLEPSYVIRKFLDAQRIHNLTAYLQTLHRQSLANADHTTLLLNCYTKLKDSSKLEEFIKKKSESEVHFDVETAIKVLRQAGYYSHALYLAENHAHHEWYLKIQLEDIKNYQEALRYIGKLPFEQAESNMKRYGKILMHHIPEQTTQLLKGLCTDYRPSLEGRSDREAPGCRANSEEFIPIFANNPRELKAFLEHMSEVQPDSPQGIYDTLLELRLQNWAHEKDPQVKEKLHAEAISLLKSGRFCDVFDKALVLCQMHDFQDGVLYLYEQGKLFQQIMHYHMQHEQYRQVISVCERHGEQDPSLWEQALSYFARKEEDCKEYVAAVLKHIENKNLMPPLLVVQTLAHNSTATLSVIRDYLVQKLQKQSQQIAQDELRVRRYREETTRIRQEIQELKASPKIFQKTKCSICNSALELPSVHFLCGHSFHQHCFESYSESDADCPTCLPENRKVMDMIRAQEQKRDLHDQFQHQLKCSNDSFSVIADYFGRGVFNKLTLLTDPPTARLTSSLEAGLQRDLLMHSRRGT"
